Data published in patent US20050053985A1.
No constants are given. Whether binding was seen depends on the method and setting. Binding seen in cells or lysates may run through a third protein. Some binding calls cover weakened binding; strength is not graded here. Sequences can lack the tags named with a protein.

Experiments:
HsSen54 (human), Q7Z6J9 [1] = molecular target: T1, HsSen54 (human), Q7Z6J9; assay: co-purification with the His-Flag-tagged bait from stable 293 cells (anti-Flag beads, then Ni beads); SDS-PAGE, silver staining; conditions: remark: other sources report otherwise
T1 chain: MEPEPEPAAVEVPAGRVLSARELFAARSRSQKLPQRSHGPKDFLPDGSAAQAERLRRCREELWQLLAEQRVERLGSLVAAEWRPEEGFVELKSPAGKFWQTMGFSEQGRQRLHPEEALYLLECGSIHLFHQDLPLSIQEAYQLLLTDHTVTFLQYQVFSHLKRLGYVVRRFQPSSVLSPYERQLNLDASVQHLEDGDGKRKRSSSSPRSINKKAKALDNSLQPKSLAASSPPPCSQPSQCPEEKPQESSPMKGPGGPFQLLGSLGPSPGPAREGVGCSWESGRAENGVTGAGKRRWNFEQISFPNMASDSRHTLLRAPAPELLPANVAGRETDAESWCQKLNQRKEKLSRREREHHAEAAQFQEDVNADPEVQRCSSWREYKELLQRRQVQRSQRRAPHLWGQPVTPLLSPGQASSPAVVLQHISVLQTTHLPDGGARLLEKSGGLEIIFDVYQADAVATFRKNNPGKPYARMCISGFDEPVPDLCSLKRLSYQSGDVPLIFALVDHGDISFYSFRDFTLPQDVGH

HsSen54 (human), Q7Z6J9 [2] = molecular target: T1, HsSen54 (human), Q7Z6J9; assay: co-purification (anti-Flag then Ni beads), SDS-PAGE, silver staining; conditions: remark: other sources report otherwise
HsSen34 (human) [3] = molecular target: T2, HsSen34 (human) (UniProt Q9BSV6); assay: co-purification with the His-Flag-tagged bait from stable 293 cells (anti-Flag beads, then Ni beads); SDS-PAGE, silver staining
T2 sequence (looked up): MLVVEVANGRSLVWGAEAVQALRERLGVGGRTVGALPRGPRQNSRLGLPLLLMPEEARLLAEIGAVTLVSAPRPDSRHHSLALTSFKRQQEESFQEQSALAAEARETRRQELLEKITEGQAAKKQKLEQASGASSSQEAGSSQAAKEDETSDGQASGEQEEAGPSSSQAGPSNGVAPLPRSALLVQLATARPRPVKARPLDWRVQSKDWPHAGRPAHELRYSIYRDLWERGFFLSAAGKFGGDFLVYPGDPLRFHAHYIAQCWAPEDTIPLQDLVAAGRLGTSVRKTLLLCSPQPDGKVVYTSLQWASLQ

HsSen2 (human) [4] = molecular target: T3, HsSen2 (human) (UniProt Q8NCE0); assay: as above
T3 sequence (looked up): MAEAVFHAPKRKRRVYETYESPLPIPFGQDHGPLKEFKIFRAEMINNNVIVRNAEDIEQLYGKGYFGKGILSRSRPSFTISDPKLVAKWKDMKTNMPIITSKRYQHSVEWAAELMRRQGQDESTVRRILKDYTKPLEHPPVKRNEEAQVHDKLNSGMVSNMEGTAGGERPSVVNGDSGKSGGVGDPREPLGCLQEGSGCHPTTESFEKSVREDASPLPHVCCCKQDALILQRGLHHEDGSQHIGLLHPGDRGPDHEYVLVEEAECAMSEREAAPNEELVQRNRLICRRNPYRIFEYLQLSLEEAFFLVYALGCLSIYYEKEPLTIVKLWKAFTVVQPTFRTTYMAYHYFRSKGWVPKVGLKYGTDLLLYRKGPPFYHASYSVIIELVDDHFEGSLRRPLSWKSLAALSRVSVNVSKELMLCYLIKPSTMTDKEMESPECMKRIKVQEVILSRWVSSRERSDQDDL

HsClp1 (human) = molecular target: T4, HsClp1 (human) (UniProt Q92989); assay: as above
T4 sequence (looked up): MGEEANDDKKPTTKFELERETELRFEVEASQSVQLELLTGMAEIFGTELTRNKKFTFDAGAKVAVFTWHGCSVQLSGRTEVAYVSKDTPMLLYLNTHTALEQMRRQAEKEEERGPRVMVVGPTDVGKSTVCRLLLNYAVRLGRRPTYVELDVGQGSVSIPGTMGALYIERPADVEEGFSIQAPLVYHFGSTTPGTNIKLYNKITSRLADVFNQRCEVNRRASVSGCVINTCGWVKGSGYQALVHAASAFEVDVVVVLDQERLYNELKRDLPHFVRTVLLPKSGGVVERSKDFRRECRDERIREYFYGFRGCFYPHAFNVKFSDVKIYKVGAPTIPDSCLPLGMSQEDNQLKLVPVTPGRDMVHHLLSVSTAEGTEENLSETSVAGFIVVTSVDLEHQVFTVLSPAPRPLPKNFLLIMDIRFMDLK

HsSen34 (human) [5] = molecular target: T2, HsSen34 (human); assay: co-purification (anti-Flag then Ni beads), SDS-PAGE, silver staining
HsSen2 (human) [6] = molecular target: T3, HsSen2 (human); assay: as above
HsSen15 (human), Q8WW01 [7] = molecular target: T5, HsSen15 (human), Q8WW01; assay: co-purification with the His-Flag-tagged bait from stable 293 cells (anti-Flag beads, then Ni beads); SDS-PAGE, silver staining; conditions: remark: other sources report otherwise
T5 chain: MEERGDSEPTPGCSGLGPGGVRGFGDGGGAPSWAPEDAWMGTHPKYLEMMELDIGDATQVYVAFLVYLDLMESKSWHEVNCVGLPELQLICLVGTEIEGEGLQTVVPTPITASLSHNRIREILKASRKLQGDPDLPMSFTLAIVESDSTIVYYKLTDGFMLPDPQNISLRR

HsSen15 (human), Q8WW01 [8] = molecular target: T5, HsSen15 (human), Q8WW01; assay: co-purification (anti-Flag then Ni beads), SDS-PAGE, silver staining; conditions: remark: other sources report otherwise

Measured: binding

B1: His-Flag-HsSen15, Q8WW01 1-171 (protein, human, UniProt Q8WW01 1-171, looked up, not shown: small tags and cut ends)
chain: MEERGDSEPTPGCSGLGPGGVRGFGDGGGAPSWAPEDAWMGTHPKYLEMMELDIGDATQVYVAFLVYLDLMESKSWHEVNCVGLPELQLICLVGTEIEGEGLQTVVPTPITASLSHNRIREILKASRKLQGDPDLPMSFTLAIVESDSTIVYYKLTDGFMLPDPQNISLRR
binds: HsSen54 (human), Q7Z6J9 [1] | HsSen54 (human), Q7Z6J9 [2]

B2: His-Flag-HsSen54 (protein, human, UniProt Q7Z6J9 1-526, looked up, not shown: small tags and cut ends)
chain: MEPEPEPAAVEVPAGRVLSARELFAARSRSQKLPQRSHGPKDFLPDGSAAQAERLRRCREELWQLLAEQRVERLGSLVAAEWRPEEGFVELKSPAGKFWQTMGFSEQGRQRLHPEEALYLLECGSIHLFHQDLPLSIQEAYQLLLTDHTVTFLQYQVFSHLKRLGYVVRRFQPSSVLSPYERQLNLDASVQHLEDGDGKRKRSSSSPRSINKKAKALDNSLQPKSLAASSPPPCSQPSQCPEEKPQESSPMKGPGGPFQLLGSLGPSPGPAREGVGCSWESGRAENGVTGAGKRRWNFEQISFPNMASDSRHTLLRAPAPELLPANVAGRETDAESWCQKLNQRKEKLSRREREHHAEAAQFQEDVNADPEVQRCSSWREYKELLQRRQVQRSQRRAPHLWGQPVTPLLSPGQASSPAVVLQHISVLQTTHLPDGGARLLEKSGGLEIIFDVYQADAVATFRKNNPGKPYARMCISGFDEPVPDLCSLKRLSYQSGDVPLIFALVDHGDISFYSFRDFTLPQDVGH
binds: HsSen34 (human) [3] | HsSen2 (human) [4] | HsClp1 (human) | HsSen34 (human) [5] | HsSen2 (human) [6]

B3: His-Flag-HsSen54, Q7Z6J9 1-526 (protein, human, UniProt Q7Z6J9 1-526, looked up, not shown: small tags and cut ends)
chain: MEPEPEPAAVEVPAGRVLSARELFAARSRSQKLPQRSHGPKDFLPDGSAAQAERLRRCREELWQLLAEQRVERLGSLVAAEWRPEEGFVELKSPAGKFWQTMGFSEQGRQRLHPEEALYLLECGSIHLFHQDLPLSIQEAYQLLLTDHTVTFLQYQVFSHLKRLGYVVRRFQPSSVLSPYERQLNLDASVQHLEDGDGKRKRSSSSPRSINKKAKALDNSLQPKSLAASSPPPCSQPSQCPEEKPQESSPMKGPGGPFQLLGSLGPSPGPAREGVGCSWESGRAENGVTGAGKRRWNFEQISFPNMASDSRHTLLRAPAPELLPANVAGRETDAESWCQKLNQRKEKLSRREREHHAEAAQFQEDVNADPEVQRCSSWREYKELLQRRQVQRSQRRAPHLWGQPVTPLLSPGQASSPAVVLQHISVLQTTHLPDGGARLLEKSGGLEIIFDVYQADAVATFRKNNPGKPYARMCISGFDEPVPDLCSLKRLSYQSGDVPLIFALVDHGDISFYSFRDFTLPQDVGH
binds: HsSen15 (human), Q8WW01 [7] | HsSen15 (human), Q8WW01 [8]
